Measured data: PubChem BioAssay AID720505 (Drosophila RNAi Screening Center, 2013)
The deposit covers about 20,000 reagents; below is an unselected part of those that have a named target and a result. In the full data, about 2,100 (10%) were called active. 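Raw plate signals without normalisation; calls rest on control-based scores that were not deposited; replicate 2 separates called from uncalled poorly.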 A number with no mark means an inactive call. The numbers tell different reagents against one gene apart. Names joined by + are all predicted targets of the reagent. Not given: the amount of reagent, the time to read-out.

Aim: 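Fly regulators or components of the CRAC channel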 (primary screen)
System: Drosophila S2R+ cells
Knock-down reagent: long dsRNA against Drosophila genes
Treatment: thapsigargin (2 µM) in calcium-free buffer to empty internal stores, then 2 mM calcium added back
Detection: 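Fluo-4 signal in 384-well plates read on a FLIPR after thapsigargin (2 µM, calcium-free) store depletion and 2 mM calcium add-back; unnormalised mean endpoint per well; screen run twice, selected wells retested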
Direction: calcium signal and retest calcium signal: higher = more calcium entry after store depletion
Active means: 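Knock-downs counted as hits when calcium entry dropped relative to STIM1 positive and Rho1 negative controls present on each plate; roughly 1500 genes called, with reductions of differing size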
Meaning of the calls: active = called as lowering calcium entry; inactive = not called

| gene | dsRNA no. | calcium signal, replicate 1 | calcium signal, replicate 2 | retest calcium signal, replicate 1 | retest calcium signal, replicate 2 |
| --- | --- | --- | --- | --- | --- |
| CG10898 | 1 | 94.4 | 111 | – | – |
| Snmp2 | 1 | 72.3 (active) | 54.6 | – | – |
| Snmp2 | 2 | 72.2 | 54.7 | – | – |
| MED30 | 1 | 64.1 (active) | 120 | – | – |
| MED30 | 2 | 120 | 196 | – | – |
| Lsm12a | 1 | 114 | 91.9 | – | – |
| Mal-A4 | 1 | 155 | 140 | – | – |
| CG13228 | 1 | 70.2 | 112 | – | – |
| spoon | 1 | 113 | 68.9 | – | – |
| CG6938 | 1 | 44.1 (active) | 86.8 | – | – |
| CG14331 | 1 | 104 | 175 | – | – |
| CG17687 | 1 | 98.6 | 108 | – | – |
| CG12974 | 1 | 91.7 | 158 | – | – |
| CG12464 | 1 | 116 | 157 | – | – |
| CG4360 | 1 | 128 | 152 | – | – |
| CG9451 | 1 | 105 | 189 | – | – |
| nompC | 1 | 94.4 | 90.6 | – | – |
| AIMP1 | 1 | 113 | 98.6 | – | – |
| CG12860 | 1 | 105 | 165 | – | – |
| CG7530 | 1 | 148 | 142 | 98.4 | 103 |
| SNCF | 1 | 91.1 | 119 | – | – |
| CG31928 | 1 | 127 | 196 | – | – |
| Mul1 | 1 | 87 | 133 | – | – |
| CG17732 | 1 | 101 | 120 | – | – |
| CG13564 | 1 | 92 | 169 | – | – |
| Atac3 | 1 | 97 | 95.5 | – | – |
| CG6614 | 1 | 99.7 | 123 | – | – |
| Bap170 | 1 | 181 | 86.8 | – | – |
| Bap170 | 2 | 141 | 98.8 | – | – |
| Rcd5 | 1 | 126 | 101 | – | – |
| dtr | 1 | 106 | 4696 | – | – |
| CG2962 | 1 | 172 | 132 | – | – |
| mtrm | 1 | 135 | 117 | – | – |
| mtrm | 2 | 122 | 133 | – | – |
| Ae2 | 1 | 101 | 128 | – | – |
| Ae2 | 2 | 53.2 (active) | 82.4 | – | – |
| dare + CG30033 | 1 | 135 | 169 | – | – |
| CG12985 | 1 | 89.3 | 129 | – | – |
| CG11362 | 1 | 71.6 (active) | 194 | – | – |
| CG11362 | 2 | 109 | 256 | – | – |
| CG6184 | 1 | 249 | 169 | – | – |
| Rad9 | 1 | 122 | 78.3 | – | – |
| Tk | 1 | 69.3 (active) | 200 | 7471 | 185 |
| Tk | 2 | 104 | 106 | – | – |
| pot | 1 | 191 | 140 | – | – |
| Prosbeta4R2 | 1 | 105 | 134 | – | – |
| CalpB | 1 | 78.2 | 70.4 | – | – |
| CG31097 | 1 | 273 | 98.5 | – | – |
| Polr2H | 1 | 85.2 | 74.1 | – | – |
| Pa1 | 1 | 106 | 91.7 | – | – |
| CG18746 | 1 | 148 | 217 | – | – |
| Gpo3 | 1 | 138 | 173 | – | – |
| CG11018 | 1 | 145 | 125 | – | – |
| Polr1H | 1 | 104 | 152 | – | – |
| Drsl2 | 1 | 85.5 | 94.8 | – | – |
| CG14177 (retired record) | 1 | 102 | 97.5 | 157 | 94.9 |
| mRpL19 | 1 | 161 | 157 | 6193 | 116 |
| mRpL19 | 2 | 128 | 82.8 | – | – |
| CG9447 | 1 | 87.3 | 83 | – | – |
| SPoCk | 1 | 102 | 165 | – | – |
| SPoCk | 2 | 69 (active) | 113 | – | – |
| SPoCk | 3 | 103 | 193 | – | – |
| SPoCk | 4 | 106 | 180 | – | – |
| CG13623 | 1 | 244 | 132 | – | – |
| Cyp6d2 | 1 | 60.6 (active) | 7376 | 142 | 149 |
| fd96Ca | 1 | 212 | 152 | – | – |
| CG2875 | 1 | 114 | 168 | – | – |
| CG42827 | 1 | 3666 | 197 | 145 | 82.2 |
| PH4alphaPV | 1 | 93.8 | 119 | – | – |
| Psc | 1 | 112 | 103 | – | – |
| yellow-e3 | 1 | 133 | 194 | – | – |
| Fic | 1 | 200 | 198 | – | – |
| CG8927 | 1 | 124 | 181 | – | – |
| Rtc1 | 1 | 139 | 135 | – | – |
| CG14005 | 1 | 99.1 | 187 | – | – |
| Acph-1 | 1 | 157 | 150 | – | – |
| SelR | 1 | 160 | 80.8 | – | – |
| Cpr30F | 1 | 91.2 | 117 | – | – |
| CG9981 | 1 | 74.6 | 111 | – | – |
| Or10a | 1 | 95.1 | 87.4 | – | – |
| kud | 1 | 120 | 164 | – | – |
| RpL34b | 1 | 106 | 93.2 | – | – |
| CG13751 | 1 | 83.3 | 118 | – | – |
| nxf2 | 1 | 65.3 (active) | 105 | – | – |
| CR33315 | 1 | 94.8 | 138 | – | – |
| 18w | 1 | 178 | 171 | – | – |
| pps | 1 | 168 | 114 | – | – |
| CG8818 | 1 | 122 | 136 | – | – |
| CG14505 | 1 | 179 | 176 | – | – |
| PpD5 | 1 | 151 | 84.9 | – | – |
| PpD5 | 2 | 95.1 | 155 | – | – |
| RpL27A | 1 | 76.4 | 108 | – | – |
| CG7945 | 1 | 60.8 (active) | 118 | – | – |
| CG32554 | 1 | 142 | 190 | – | – |
| CG7607 | 1 | 76.5 | 78.2 | – | – |
| CG1172 | 1 | 129 | 106 | – | – |
| CG1172 | 2 | 99.2 | 227 | – | – |
| Lsp1beta | 1 | 125 | 204 | – | – |
| CG13177 | 1 | 99.3 | 194 | – | – |
| Uba2 | 1 | 80.2 | 70.4 | – | – |
| snRNP-U1-70K | 1 | 152 | 93.3 | 91.8 | 79.5 |
| snRNP-U1-70K | 2 | 73.2 | 252 | – | – |
| CG10184 | 1 | 205 | 239 | – | – |
| Taf7 | 1 | 115 | 202 | – | – |
| TTLL3A | 1 | 141 | 133 | – | – |
| D19A | 1 | 84.9 | 105 | – | – |

Copied from the listing (8 entries):
| gene | dsRNA no. | calcium signal, replicate 1 | calcium signal, replicate 2 | retest calcium signal, replicate 1 | retest calcium signal, replicate 2 |
| --- | --- | --- | --- | --- | --- |
| yellow-e3 | 1 | 133 | 194 | – | – |
| Fic | 1 | 200 | 198 | – | – |
| CG8927 | 1 | 124 | 181 | – | – |
| Rtc1 | 1 | 139 | 135 | – | – |
| CG14005 | 1 | 99.1 | 187 | – | – |
| Acph-1 | 1 | 157 | 150 | – | – |
| SelR | 1 | 160 | 80.8 | – | – |
| Cpr30F | 1 | 91.2 | 117 | – | – |
